Test results as given in PMC6193130.
No constants are given. Whether binding was seen depends on the method and setting. Binding seen in cells or lysates may run through a third protein. Some entries that bind do so weakly or less than the wild type.

Amino acid sequences for entries named in this document (tags omitted).
UniProt O95477: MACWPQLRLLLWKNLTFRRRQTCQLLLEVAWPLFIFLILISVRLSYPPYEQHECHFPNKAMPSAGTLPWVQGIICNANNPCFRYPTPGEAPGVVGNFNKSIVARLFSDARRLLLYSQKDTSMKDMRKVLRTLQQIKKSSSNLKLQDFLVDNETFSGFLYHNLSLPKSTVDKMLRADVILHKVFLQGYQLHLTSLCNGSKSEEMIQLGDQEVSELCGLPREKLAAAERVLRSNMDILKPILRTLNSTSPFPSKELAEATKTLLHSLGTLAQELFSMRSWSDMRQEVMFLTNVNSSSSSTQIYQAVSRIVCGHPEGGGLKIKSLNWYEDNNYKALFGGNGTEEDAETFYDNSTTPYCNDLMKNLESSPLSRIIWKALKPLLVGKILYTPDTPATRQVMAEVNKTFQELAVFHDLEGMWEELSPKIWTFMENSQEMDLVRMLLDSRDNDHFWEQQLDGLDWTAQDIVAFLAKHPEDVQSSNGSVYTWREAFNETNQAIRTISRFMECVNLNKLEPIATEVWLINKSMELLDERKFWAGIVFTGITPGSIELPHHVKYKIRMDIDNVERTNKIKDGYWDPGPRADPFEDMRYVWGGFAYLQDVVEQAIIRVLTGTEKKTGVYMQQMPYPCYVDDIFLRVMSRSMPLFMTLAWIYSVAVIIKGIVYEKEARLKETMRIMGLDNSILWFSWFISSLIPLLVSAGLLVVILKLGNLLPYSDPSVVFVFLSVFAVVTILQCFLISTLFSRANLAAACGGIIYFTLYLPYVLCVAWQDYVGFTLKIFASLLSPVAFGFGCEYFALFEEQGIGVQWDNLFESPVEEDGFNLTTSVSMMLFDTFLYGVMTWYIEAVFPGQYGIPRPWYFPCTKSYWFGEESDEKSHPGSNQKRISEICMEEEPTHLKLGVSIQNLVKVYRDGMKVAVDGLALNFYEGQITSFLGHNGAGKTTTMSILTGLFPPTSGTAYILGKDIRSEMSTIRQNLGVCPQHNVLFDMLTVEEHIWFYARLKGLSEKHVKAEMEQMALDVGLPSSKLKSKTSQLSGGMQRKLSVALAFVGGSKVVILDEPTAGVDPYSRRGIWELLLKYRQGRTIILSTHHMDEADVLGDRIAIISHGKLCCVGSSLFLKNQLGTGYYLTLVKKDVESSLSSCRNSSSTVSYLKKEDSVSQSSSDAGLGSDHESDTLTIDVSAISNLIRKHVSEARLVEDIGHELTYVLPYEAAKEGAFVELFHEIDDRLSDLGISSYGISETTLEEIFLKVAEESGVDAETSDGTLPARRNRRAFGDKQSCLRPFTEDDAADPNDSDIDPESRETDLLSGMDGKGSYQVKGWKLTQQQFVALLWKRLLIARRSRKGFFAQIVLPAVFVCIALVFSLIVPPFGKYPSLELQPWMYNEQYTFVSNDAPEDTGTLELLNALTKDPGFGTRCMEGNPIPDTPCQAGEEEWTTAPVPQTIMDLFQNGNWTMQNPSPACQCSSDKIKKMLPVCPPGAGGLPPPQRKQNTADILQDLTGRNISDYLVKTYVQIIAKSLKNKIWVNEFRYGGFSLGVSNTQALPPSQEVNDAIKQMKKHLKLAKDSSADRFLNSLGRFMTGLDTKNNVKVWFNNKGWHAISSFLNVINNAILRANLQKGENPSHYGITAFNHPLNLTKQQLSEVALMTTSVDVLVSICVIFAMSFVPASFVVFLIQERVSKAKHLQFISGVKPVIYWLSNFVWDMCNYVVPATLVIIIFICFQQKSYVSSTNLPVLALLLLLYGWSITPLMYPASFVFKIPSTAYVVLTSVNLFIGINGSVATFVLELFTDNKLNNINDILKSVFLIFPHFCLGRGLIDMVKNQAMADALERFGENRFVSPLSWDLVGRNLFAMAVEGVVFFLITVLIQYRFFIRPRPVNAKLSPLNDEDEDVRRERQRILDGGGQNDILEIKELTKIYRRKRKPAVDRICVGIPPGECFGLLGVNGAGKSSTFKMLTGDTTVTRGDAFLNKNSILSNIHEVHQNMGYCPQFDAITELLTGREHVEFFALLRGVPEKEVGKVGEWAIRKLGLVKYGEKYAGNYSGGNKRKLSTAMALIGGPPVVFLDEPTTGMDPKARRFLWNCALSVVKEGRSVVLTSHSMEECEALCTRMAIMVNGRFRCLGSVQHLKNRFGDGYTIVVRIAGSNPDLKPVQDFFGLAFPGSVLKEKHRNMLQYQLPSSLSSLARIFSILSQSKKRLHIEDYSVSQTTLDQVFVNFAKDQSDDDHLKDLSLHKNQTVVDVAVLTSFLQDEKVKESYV

B1: annexin A1 (ANXA1) (protein, UniProt P04083 1-346)
chain: MAMVSEFLKQAWFIENEEQEYVQTVKSSKGGPGSAVSPYPTFNPSSDVAALHKAIMVKGVDEATIIDILTKRNNAQRQQIKAAYLQETGKPLDETLKKALTGHLEEVVLALLKTPAQFDADELRAAMKGLGTDEDTLIEILASRTNKEIRDINRVYREELKRDLAKDITSDTSGDFRNALLSLAKGDRSEDFGVNEDLADSDARALYEAGERRKGTDVNVFNTILTTRSYPQLRRVFQKYTKYSKHDMNKVLDLELKGDIEKCLTAIVKCATSKPAFFAEKLHQAMKGVGTRHKALIRIMVSRSEIDMNDIKAFYQKMYGISLCQAILDETKGDYEKILVALCGGN
B2: C3 domain of ANXA1 (amino acids 196 to 274) (domain or fragment, UniProt P04083 196-274)
chain: EDLADSDARALYEAGERRKGTDVNVFNTILTTRSYPQLRRVFQKYTKYSKHDMNKVLDLELKGDIEKCLTAIVKCATSK

Assays:
[1] = target: ATP-binding cassette transporter A1 (ABCA1) (human (endogenous in HEK293)) (UniProt O95477); assay: co-IP; as a1, from LPS-stimulated cells
[2] = target: ATP-binding cassette transporter A1 (ABCA1) (human (endogenous in HEK293)) (UniProt O95477); assay: co-IP; as a1, from LPS-stimulated cells; remark: listed apart in the source
[3] = target: ATP-binding cassette transporter A1 (ABCA1) (human (endogenous in HEK293)) (UniProt O95477); assay: co-IP; membrane proteins extracted from whole cell lysates; IP with anti-ABCA1 antibody overnight at 4°C, protein A/G PLUS-Agarose, blot; with or without EDTA; with or without TO901317
[4] = target: ATP-binding cassette transporter A1 (ABCA1) (human (endogenous in HEK293)) (UniProt O95477); assay: co-IP; cells with full-length and fragment ANXA1 plasmids; co-IP of ANXA1 constructs with ABCA1, blot

Binder	binding [1]	binding [2]	binding [3]	binding [4]
B1	no binding (condition: with LPS stimulation of the cells)	binds	binds	–
B2	–	–	–	binds
